# From the supplement of paper PMC4604168 (melanoma cell lines)
# The other results are listed elsewhere or left out. Repeats are few or missing, and single values can be far off.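 The apoptosis fraction was the count of cleaved-PARP antibody-stained nuclei relative to all DNA-stained nuclei, imaged in 1,536-well plates. Screening doses were set so most cells survived, and baseline and induced cleaved-PARP levels vary greatly across cell lines.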
# Tested on: 501Mel
# Assay: cleaved PARP positive nuclei fraction relative to DMSO control; melanoma cells; higher = more apoptosis
# Conditions: library dose: low library concentration; 72 h
row,SMILES,cleaved PARP positive nuclei fraction [%]
1,"CCCCCCCCCCCCCCCCCCOP(=O)([O-])OC1CC[N+](C)(C)CC1 [Perifosine] + NCC(=O)Nc1ccc(-n2nc(C(F)(F)F)cc2-c2ccc3c(ccc4ccccc43)c2)cc1 [OSU03012] (first compound 0.4 µM, partner dose 1 µM)",402
2,"CCCCCCCCCCCCCCCCCCOP(=O)([O-])OC1CC[N+](C)(C)CC1 [Perifosine] + O=C(Nc1cccc(Cl)c1)Nc1ncc(CCNc2ncnc3ccsc23)s1 [SNS314] (first compound 0.4 µM, partner dose 0.0008 µM)",99.7
3,"O=C(/C=C/c1cccnc1)NCCCCC1CCN(C(=O)c2ccccc2)CC1 + Cc1cc(N2CCOCC2)cc2[nH]c(-c3c(NC[C@@H](O)c4cccc(Cl)c4)cc[nH]c3=O)nc12 [BMS536924] (first compound 0.01 µM, partner dose 0.2 µM)",91.6
4,"COc1cc([C@@H]2c3cc4c(cc3[C@@H](O[C@@H]3O[C@@H]5CO[C@@H](C)O[C@H]5[C@H](O)[C@H]3O)[C@H]3COC(=O)[C@H]23)OCO4)cc(OC)c1O [etoposide] + OCCn1cc(-c2cnc3nnn(Cc4ccc5ncccc5c4)c3n2)cn1 [PF04217903] (first compound 0.02 µM, partner dose 1 µM)",70.8
5,"COc1cc([C@@H]2c3cc4c(cc3[C@@H](O[C@@H]3O[C@@H]5CO[C@@H](C)O[C@H]5[C@H](O)[C@H]3O)[C@H]3COC(=O)[C@H]23)OCO4)cc(OC)c1O [etoposide] + Cc1cc(N2CCOCC2)cc2[nH]c(-c3c(NC[C@@H](O)c4cccc(Cl)c4)cc[nH]c3=O)nc12 [BMS536924] (first compound 0.02 µM, partner dose 0.2 µM)",98.7
